Laboratory results published in paper PMC8505418.
For at least one entry, the source does not settle the construct or the ends of the probe. At least one verdict rests on a figure or table, not on a statement of the authors.

Molecular target: GST-Ku70 WT (human) (UniProt P12956)
Assay: EMSA
Conditions: 1 mM Mg2+, poly[d-(I-C)] competitor; 40 ug GST-fusion protein, 0.8 ng probe, 25 uL; 10 mM Tris-HCl pH 7.5, 50 mM NaCl, 1 mM MgCl2, 0.5 mM DTT, 4% glycerol, 1 ug poly[d-(I-C)], 0.1 ug poly-L-lysine; recombinant protein; residues 2-609; protein details: N-terminal GST (pGEX-6P-1); label: digoxigenin (DIG Gel Shift Kit)

“TAGAGACGGGGTTTCACCGTGTTACCAGG / GATCTAACACACGGTGAAACCCCGTCTCTATGC [DIG-labeled DSB probe]”: binds.
